# According to patent publication US20040001828A1:
# Sequences of proteins named here, by UniProt entry; tags and fusion partners are left off. A change or cut given only in a name is not applied to a line headed by its entry.
# UniProt P20273: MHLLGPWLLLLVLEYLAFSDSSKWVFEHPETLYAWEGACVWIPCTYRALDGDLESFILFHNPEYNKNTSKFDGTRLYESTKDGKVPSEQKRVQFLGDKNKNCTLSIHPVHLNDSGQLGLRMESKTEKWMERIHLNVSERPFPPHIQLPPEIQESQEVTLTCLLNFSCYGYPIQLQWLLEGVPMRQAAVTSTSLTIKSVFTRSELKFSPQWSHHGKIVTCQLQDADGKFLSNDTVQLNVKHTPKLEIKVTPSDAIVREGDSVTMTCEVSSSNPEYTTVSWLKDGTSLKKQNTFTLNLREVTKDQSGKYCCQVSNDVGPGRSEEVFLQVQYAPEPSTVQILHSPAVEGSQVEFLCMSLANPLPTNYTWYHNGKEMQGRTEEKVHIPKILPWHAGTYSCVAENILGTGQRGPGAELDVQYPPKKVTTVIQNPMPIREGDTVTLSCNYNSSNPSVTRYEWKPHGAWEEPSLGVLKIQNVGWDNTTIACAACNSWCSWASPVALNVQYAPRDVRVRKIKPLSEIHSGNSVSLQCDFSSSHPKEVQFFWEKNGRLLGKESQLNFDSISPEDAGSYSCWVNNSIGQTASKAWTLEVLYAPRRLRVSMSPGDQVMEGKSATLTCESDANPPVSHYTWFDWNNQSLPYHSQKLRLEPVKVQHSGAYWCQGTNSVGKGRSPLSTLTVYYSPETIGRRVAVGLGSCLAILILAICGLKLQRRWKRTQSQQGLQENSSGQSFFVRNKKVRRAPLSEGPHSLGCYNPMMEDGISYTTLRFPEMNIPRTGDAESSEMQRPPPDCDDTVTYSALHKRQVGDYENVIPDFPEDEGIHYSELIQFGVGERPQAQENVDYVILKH
# No constants are given. Whether binding was seen depends on the method and setting. Some results given as binding are weak or reduced against the parent protein; the word gives no strength.
# Tests used:
# [1] = molecular target: human CD22 (hCD22) (human) (UniProt P20273); assay: hybridoma screening on mouse L cells transfected with CD22 cDNA
# [2] = molecular target: human CD22 (hCD22) (human) (UniProt P20273); assay: flow cytometry on Raji and Ramos cells
binder,measurement,setting,value
"anti-CD22 monoclonal antibody HB22-7 (antibody, V domains shown) VH: EVQLQESGPGLVAPSQSLSITCTVSGFSLSDYGVNWVRQIPGKGLEWLGIIWGDGRTDYNSALKSRLNISKDNSKSQVFLKMNSLKADDTARYYCARAPGNRAMEYWGQGTSVTVSS VL: SIVMTQTPKFLLVSAGDRITLTCKASQSVTNDVAWYQQKPGQSPKLLIYYASNRYTGVPDRFTGSGYGTDFTFTISTVQAEDLAVYFCQQDYRSPWTFGGGTKLEIKR",binding,[1],binds
same,binding,[2],binds
